According to publication PMC3338822:
No constants are given. Whether binding was seen depends on the method and setting. Binding seen in cells or lysates may run through a third protein. A yes stands for co-enrichment or nearness to the bait. Other partners may have been found.

target: Ss-Sl2 (Sclerotinia sclerotiorum (endogenous in isolate SUN-F-M)) (UniProt A7EKS0); test: affinity purification with mass spectrometry

Row | Substance | binding
1 | Woronin body major protein (from UniProt A7EDY7) | binds

target: Ss-Sl2 (Sclerotinia sclerotiorum (endogenous in isolate SUN-F-M)) (UniProt A7EKS0); test: affinity purification with mass spectrometry; 1 mg protein extract of the wild type strain (PDA, 4 days; hyphae and immature sclerotia) incubated with 2 μg Ss-Sl2 antibodies at 4°C overnight, protein A + G agarose, washed with PBS; bands analysed by LC/MS/MS; pre-immune serum as control; proteins that appeared in two independent experiments

Row | Substance | binding
2 | 40S ribosomal protein S2 (from UniProt A7F5X2) | binds
3 | 60S ribosomal protein L6 (from UniProt A7E777) | binds
4 | 60S ribosomal protein L9 (from UniProt A7E780) | binds
5 | 60S ribosomal protein L10-A (from UniProt A7EJK9) | binds
6 | Elongation factor 1-alpha (from UniProt A7EJM6) | binds
7 | Histone H2B.1 (from UniProt A7F043) | binds
8 | Ribosomal protein S3 (from UniProt A7EP73) | binds

Next, values leading:

Row | binding | Substance
9 | binds | 40S ribosomal protein S7 (from UniProt A7F4F2)
10 | binds | 40S ribosomal protein S24 (from UniProt A7E6M6)
11 | binds | 60S ribosomal protein L17 (from UniProt A7F4H8)
12 | binds | 60S ribosomal protein L35 (from UniProt A7END6)
13 | binds | Glyceraldehyde-3-phosphate dehydrogenase (from UniProt A7ER45)
